# According to article PMC5030711 (Scientific Reports, 2016):
# Assay: peptide made by a vendor
# Settings: whole synthesis
substance,measurement,value
PEPTIDE1{[HYNIC].S.F.S.I.I.H.T.P.I.L.P.L}$$$$V2.0,purity (crude or final not stated),95%

# Strings that start with PEPTIDE1 are HELM notation: dots part the residues, brackets hold end groups and non-standard residues.
